According to paper doi:10.1101/2020.05.13.090514:
These are yes or no findings as the source states them, for the method shown. In cells and extracts the contact can be indirect. These calls come from enrichment with a bait or labelling near it, and not all partners need be listed. Where a sequence is shown, tags or fusion partners need not be part of it.

The chains behind the UniProt entries cited, without tags or fusion partners.
UniProt O75396: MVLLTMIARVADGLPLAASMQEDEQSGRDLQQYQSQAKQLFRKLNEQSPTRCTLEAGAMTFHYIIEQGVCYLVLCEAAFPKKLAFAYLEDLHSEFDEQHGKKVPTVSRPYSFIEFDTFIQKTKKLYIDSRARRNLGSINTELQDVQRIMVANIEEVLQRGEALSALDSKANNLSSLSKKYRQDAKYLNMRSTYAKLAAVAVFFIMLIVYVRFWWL
UniProt P61081: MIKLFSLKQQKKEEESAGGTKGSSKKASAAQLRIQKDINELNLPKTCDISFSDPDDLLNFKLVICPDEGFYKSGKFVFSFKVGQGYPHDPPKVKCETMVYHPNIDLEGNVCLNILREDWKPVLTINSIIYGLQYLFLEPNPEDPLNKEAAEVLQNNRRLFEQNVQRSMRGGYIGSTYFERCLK

Molecular target: T1, FLAG-tagged FKBP51 (FK506-binding protein 51), overexpressed in HEK293 cells (UniProt Q13451)
T1 sequence: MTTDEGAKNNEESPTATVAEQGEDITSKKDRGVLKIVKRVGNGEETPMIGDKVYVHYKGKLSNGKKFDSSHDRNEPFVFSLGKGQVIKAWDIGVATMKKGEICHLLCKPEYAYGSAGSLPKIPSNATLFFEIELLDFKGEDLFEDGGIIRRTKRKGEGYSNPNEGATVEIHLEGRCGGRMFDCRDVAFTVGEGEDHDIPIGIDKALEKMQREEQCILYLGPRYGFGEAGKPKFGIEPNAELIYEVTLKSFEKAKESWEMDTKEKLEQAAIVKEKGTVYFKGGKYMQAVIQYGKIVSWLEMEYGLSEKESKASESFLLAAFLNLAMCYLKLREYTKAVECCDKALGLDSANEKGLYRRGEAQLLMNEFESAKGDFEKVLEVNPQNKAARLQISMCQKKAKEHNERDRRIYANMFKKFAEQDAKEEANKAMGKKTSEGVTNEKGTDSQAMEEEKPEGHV
Test: affinity purification with mass spectrometry

| binding | Substance |
| --- | --- |
| binds | SEC22B (vesicular R-SNARE protein), found in the FLAG-FKBP51 immunoprecipitate from HEK293 cells (from UniProt O75396 1-215) |
| binds | UBC12, FKBP51 interactor of the HEK293 interactome (from UniProt P61081 1-183) |
